The list shows a part of the results.

By UniProt entry, the sequences of proteins in these tests, tags left out. Where a name states a change or a piece, a line headed by the entry shows the natural chain unless it says otherwise.
UniProt Q13371: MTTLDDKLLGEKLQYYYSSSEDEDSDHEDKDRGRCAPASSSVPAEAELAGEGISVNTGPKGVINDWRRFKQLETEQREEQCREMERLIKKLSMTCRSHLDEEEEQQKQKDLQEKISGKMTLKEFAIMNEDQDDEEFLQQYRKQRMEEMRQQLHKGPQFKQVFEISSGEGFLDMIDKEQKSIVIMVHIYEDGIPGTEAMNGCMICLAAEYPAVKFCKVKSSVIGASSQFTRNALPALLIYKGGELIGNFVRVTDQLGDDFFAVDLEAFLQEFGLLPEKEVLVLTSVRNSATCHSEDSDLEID
UniProt O14737: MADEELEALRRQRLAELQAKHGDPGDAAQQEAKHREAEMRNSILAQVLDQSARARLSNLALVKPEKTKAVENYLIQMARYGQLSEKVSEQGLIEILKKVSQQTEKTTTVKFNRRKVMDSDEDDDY
UniProt Q14690: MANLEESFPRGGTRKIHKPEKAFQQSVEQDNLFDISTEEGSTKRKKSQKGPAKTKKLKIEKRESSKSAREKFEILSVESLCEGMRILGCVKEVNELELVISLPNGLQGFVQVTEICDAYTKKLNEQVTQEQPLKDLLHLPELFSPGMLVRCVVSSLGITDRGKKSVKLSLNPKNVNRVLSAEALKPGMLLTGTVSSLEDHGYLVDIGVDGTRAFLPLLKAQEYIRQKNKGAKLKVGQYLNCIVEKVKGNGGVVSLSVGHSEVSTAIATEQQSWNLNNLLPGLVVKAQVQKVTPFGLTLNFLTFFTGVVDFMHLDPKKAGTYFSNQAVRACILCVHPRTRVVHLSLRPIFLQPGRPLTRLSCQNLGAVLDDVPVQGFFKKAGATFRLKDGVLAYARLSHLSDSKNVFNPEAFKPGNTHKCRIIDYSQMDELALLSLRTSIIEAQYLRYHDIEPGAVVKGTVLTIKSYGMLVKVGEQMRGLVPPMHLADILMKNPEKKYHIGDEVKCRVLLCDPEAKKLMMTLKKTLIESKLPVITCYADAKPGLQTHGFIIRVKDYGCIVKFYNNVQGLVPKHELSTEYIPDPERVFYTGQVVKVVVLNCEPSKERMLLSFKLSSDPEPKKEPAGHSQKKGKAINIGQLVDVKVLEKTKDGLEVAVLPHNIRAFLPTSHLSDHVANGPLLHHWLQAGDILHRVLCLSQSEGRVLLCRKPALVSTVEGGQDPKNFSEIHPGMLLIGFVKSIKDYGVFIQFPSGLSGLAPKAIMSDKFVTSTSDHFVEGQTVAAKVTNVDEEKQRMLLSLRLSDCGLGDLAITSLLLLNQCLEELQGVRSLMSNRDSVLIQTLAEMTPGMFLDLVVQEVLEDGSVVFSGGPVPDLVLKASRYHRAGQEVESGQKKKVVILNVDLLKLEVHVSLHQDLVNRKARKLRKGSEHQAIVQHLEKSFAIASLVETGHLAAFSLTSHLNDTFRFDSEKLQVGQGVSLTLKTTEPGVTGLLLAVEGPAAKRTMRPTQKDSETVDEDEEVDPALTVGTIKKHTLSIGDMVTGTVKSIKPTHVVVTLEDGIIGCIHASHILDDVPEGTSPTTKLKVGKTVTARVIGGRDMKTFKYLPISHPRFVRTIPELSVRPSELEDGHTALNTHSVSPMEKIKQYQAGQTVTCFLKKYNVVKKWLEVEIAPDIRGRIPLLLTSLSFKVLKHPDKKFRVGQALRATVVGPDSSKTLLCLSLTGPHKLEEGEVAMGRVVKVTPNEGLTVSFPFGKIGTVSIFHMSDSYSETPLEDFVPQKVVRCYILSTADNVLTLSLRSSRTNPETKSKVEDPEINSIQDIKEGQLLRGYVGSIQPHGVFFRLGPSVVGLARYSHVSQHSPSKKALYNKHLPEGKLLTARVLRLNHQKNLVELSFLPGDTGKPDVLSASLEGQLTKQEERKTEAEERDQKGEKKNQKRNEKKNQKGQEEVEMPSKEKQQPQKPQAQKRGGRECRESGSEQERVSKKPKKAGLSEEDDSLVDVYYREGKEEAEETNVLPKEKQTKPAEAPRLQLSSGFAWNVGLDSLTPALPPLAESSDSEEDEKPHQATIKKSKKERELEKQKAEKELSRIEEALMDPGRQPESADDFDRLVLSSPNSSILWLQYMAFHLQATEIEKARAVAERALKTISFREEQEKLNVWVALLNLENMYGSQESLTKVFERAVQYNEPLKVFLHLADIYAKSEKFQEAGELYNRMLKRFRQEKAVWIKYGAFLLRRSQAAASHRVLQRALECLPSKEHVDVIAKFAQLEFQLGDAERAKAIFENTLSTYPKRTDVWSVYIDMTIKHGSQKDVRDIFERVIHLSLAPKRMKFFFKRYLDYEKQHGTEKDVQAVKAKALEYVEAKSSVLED
UniProt O00330, whole entry, looked up: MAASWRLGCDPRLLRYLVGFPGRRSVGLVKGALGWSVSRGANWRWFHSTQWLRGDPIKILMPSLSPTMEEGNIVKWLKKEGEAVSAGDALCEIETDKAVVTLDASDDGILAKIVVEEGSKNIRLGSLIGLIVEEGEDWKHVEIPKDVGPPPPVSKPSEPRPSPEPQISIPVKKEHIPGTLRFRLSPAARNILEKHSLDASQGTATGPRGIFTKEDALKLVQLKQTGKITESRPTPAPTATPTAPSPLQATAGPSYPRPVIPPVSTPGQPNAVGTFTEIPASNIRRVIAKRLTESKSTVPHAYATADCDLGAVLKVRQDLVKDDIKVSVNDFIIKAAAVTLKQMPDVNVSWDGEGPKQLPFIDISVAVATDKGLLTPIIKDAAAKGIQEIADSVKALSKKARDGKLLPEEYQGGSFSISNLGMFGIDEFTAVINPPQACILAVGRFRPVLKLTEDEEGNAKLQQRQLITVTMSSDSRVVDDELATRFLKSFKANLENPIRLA
UniProt P11177, whole entry, looked up: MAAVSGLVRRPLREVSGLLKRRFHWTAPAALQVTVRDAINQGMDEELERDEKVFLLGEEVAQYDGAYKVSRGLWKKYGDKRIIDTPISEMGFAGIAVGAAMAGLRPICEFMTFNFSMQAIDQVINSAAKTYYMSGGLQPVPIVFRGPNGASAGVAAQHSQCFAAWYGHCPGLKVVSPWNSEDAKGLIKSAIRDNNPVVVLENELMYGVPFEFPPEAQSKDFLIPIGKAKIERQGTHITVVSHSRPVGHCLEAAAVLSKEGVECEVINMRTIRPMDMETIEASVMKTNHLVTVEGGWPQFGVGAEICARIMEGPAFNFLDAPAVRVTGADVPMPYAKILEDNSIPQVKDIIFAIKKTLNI
UniProt Q13177, whole entry, looked up: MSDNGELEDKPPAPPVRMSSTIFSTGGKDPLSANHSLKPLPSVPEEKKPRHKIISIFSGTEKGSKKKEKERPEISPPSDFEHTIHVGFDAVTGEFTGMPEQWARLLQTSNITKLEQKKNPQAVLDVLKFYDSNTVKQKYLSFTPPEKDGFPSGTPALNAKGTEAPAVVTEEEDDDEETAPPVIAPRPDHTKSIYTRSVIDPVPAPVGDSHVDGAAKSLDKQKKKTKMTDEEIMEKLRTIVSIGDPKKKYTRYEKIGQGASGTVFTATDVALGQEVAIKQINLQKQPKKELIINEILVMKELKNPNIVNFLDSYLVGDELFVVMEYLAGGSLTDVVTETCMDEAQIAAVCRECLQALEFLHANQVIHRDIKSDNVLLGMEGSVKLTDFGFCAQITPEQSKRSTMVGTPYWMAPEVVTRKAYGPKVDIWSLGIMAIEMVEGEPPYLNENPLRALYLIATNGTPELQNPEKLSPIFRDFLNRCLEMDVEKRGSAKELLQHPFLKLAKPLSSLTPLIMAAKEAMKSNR
UniProt O75381, whole entry, looked up: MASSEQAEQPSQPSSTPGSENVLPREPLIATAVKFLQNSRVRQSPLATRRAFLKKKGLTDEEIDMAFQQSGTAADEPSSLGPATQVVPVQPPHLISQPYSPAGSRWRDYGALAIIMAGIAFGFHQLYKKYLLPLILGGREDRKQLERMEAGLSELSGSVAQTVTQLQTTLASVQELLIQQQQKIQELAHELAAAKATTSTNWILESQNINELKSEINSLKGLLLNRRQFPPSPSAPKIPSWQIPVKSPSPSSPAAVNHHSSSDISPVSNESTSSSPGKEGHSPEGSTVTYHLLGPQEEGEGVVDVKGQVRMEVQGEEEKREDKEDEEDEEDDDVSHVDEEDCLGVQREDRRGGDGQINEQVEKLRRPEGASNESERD
UniProt Q8NBP7, whole entry, looked up: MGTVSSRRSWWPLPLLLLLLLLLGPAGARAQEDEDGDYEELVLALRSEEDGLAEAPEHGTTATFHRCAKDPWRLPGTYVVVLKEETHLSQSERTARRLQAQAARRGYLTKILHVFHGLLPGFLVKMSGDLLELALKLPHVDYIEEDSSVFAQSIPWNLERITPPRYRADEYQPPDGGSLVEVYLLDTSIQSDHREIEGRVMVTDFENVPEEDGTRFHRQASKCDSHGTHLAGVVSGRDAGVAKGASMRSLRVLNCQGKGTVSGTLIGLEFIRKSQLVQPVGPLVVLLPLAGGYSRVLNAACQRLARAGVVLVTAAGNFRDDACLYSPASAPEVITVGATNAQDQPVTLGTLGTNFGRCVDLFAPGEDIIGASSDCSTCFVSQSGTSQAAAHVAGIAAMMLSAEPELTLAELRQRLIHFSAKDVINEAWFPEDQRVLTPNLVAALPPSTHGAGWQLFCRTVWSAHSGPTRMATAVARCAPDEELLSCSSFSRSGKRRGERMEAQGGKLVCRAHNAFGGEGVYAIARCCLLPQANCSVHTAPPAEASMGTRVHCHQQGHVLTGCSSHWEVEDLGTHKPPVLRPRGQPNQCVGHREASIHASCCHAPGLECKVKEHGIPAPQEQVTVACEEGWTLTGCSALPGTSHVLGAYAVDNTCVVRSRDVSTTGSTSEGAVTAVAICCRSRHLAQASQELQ
UniProt Q9H0N5: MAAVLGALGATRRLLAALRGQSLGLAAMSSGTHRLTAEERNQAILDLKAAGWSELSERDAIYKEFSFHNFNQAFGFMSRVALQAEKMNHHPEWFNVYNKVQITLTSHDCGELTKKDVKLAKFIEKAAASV
UniProt P50479: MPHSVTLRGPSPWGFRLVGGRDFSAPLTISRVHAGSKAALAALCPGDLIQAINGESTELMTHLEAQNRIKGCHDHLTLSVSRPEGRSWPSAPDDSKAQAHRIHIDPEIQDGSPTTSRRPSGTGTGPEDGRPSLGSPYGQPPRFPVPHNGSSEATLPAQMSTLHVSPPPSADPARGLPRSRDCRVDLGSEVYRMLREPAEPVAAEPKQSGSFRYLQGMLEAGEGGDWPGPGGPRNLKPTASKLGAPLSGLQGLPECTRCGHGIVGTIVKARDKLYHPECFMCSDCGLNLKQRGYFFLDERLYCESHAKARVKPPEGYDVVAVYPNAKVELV
UniProt P12004, whole entry, looked up: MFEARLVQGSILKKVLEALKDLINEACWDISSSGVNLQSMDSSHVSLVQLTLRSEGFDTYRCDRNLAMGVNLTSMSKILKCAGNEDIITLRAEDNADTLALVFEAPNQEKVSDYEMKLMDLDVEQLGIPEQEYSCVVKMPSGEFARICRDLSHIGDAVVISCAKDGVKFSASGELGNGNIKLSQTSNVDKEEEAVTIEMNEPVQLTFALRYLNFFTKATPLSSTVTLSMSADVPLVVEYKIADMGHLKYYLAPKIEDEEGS
UniProt P43034: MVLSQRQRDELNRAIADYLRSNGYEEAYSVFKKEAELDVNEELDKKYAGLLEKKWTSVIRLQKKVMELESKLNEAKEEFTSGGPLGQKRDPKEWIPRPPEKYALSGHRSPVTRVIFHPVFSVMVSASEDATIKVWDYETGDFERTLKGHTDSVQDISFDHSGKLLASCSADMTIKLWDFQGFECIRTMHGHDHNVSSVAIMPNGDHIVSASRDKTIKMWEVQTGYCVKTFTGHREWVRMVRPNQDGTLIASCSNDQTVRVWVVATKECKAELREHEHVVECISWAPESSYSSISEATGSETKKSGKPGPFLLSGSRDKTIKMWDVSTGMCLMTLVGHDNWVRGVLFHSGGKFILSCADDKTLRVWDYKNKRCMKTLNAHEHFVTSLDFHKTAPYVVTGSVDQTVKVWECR
UniProt P61457: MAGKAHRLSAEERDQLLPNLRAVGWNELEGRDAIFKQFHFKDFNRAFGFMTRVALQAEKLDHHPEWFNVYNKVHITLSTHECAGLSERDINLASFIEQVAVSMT
UniProt O00764: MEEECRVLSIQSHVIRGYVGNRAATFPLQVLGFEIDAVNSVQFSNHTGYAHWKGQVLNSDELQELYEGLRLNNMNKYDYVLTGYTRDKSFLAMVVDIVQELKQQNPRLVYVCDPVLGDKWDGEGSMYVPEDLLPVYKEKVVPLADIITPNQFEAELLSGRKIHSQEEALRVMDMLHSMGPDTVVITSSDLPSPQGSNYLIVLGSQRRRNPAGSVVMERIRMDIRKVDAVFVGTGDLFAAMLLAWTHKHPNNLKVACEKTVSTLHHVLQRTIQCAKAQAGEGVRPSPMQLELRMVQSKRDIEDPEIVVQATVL
UniProt P30039: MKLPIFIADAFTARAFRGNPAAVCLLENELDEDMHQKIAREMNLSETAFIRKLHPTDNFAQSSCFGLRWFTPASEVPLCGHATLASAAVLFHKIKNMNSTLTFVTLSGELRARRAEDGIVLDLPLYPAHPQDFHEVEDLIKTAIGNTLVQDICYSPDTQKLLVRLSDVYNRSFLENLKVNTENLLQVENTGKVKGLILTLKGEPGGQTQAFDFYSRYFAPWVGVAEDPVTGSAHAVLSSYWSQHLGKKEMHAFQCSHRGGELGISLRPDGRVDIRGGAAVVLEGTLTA

Compound in the first assay: CC1=C(C=C(C=C1)NC(=O)C2=CC(=CC=C2)N(C)C)NC(=O)C3=CC=C(C=C3)O
The experiment in a line: log2 fold change, soluble protein after heating vs DMSO (PISA); higher = thermal stabilisation; K562 cells, 10 uM, 30 min; active = over 0.2 and 3.5 SD of the protein, either way, in both replicates (recomputed). In outline:
(§1)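 K562 cells at 2×10^6 cells/mL were exposed to 10 μM compound for 30 min, then aliquots were heated for 3 min across 48°C-58°C, pooled, and extracted in PBS containing 0.5% NP-40 at 4°C. The supernatant after 21,000xg for 90 min was taken as soluble protein and measured by TMTpro 16plex LC-MS/MS with channel sums equalised. Thermal stability is reported relative to control samples, with values from duplicates. Fold changes are given on a log2 scale.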
PCYOX1 (UniProt Q9UHG3): the log2 fold change is inactive: 0.015.
On the same count and under the same terms, next, PDCL (UniProt Q13371): inactive: 0.057; PDCD5 (UniProt O14737): inactive: -0.021; PAGR1 (UniProt Q9BTK6): inactive: 0.031.
The same measure, in the same setting: next, PDCD11 (UniProt Q14690): inactive: -0.022; PDSS1 (UniProt Q5T2R2): inactive: -0.007; PAK3 isoform 3 (UniProt O75914): inactive: 0.
Same read-out and setting: next, PAIP2 (UniProt Q9BPZ3): inactive: 0.04; PDF (UniProt Q9HBH1): inactive: 0.045; PANX1 (UniProt Q96RD7): inactive: -0.012.
On to PDHX (UniProt O00330), for which the log2 fold change is inactive: -0.008.
Same read-out and setting: next, PDHB (UniProt P11177): inactive: -0.033; PAK2 (UniProt Q13177): inactive: -0.001.
As for PEX14 (UniProt O75381), the log2 fold change is inactive: -0.032.
Regarding PASK (UniProt Q96RG2), the log2 fold change was inactive: 0.028.
With PCSK9 (UniProt Q8NBP7), the log2 fold change is inactive: -0.045.
PAPSS1 (UniProt O43252): the log2 fold change is inactive: 0.015.
Turning to PDIA4 (UniProt P13667), the log2 fold change was inactive: -0.018.
With PABPC4 isoform 3 (UniProt Q13310), the log2 fold change was inactive: 0.015.
On the same count and under the same terms, the figure for PCBD2 (UniProt Q9H0N5) is inactive: 0.046; for PDCL3 (UniProt Q9H2J4) it is inactive: 0.037.
As for PDLIM4 (UniProt P50479), the log2 fold change is inactive: -0.026.
With PCNA (UniProt P12004), the log2 fold change was inactive: 0.028.
For PDXDC1 (UniProt Q6P996), the log2 fold change is inactive: -0.035.
Same read-out and setting: next, PAFAH1B1 (UniProt P43034): inactive: -0.001; PDZD8 (UniProt Q8NEN9): inactive: -0.012; PEX12 (UniProt O00623): inactive: -0.037.
Still for that read-out and setting: the figure for PCBD1 (UniProt P61457) is inactive: -0.047; for PDIA5 (UniProt Q14554) it is inactive: -0.013; for PDXK (UniProt O00764) it is inactive: 0.008.
The same measure, in the same setting: the figure for PBLD (UniProt P30039) is inactive: 0.022; for PEX1 (UniProt O43933) it is inactive: -0.036.
On to PANK2 (UniProt Q9BZ23), for which the log2 fold change is inactive: -0.031.

Compound in the next assay: CC1=CC=C(C=C1)SC2=C3C=C(SC3=CN=C2)C(=O)N
The description is as above. In outline: as §1
With PCYOX1 (UniProt Q9UHG3), the log2 fold change was inactive: 0.042.
Same read-out and setting: next, PDCL (UniProt Q13371): inactive: -0.046; PDCD5 (UniProt O14737): inactive: -0.006.
With PAGR1 (UniProt Q9BTK6), the log2 fold change is inactive: 0.019.
As to PDCD11 (UniProt Q14690), the log2 fold change is inactive: 0.175.
Still for that read-out and setting: next, PDSS1 (UniProt Q5T2R2): inactive: -0.065.
For the target PAK3 isoform 3 (UniProt O75914), the log2 fold change was inactive: 0.087.
Same read-out and setting: the figure for PAIP2 (UniProt Q9BPZ3) is inactive: 0.019; for PDF (UniProt Q9HBH1) it is inactive: 0.018; for PANX1 (UniProt Q96RD7) it is inactive: -0.001.
Still for that read-out and setting: the figure for PDHX (UniProt O00330) is inactive: -0.001; for PDHB (UniProt P11177) it is inactive: -0.024.
On the same count and under the same terms, the figure for PAK2 (UniProt Q13177) is inactive: -0.005; for PEX14 (UniProt O75381) it is inactive: 0.009.
As to PASK (UniProt Q96RG2), the log2 fold change is inactive: 0.069.
Still for that read-out and setting: next, PCSK9 (UniProt Q8NBP7): inactive: 0.002.
The same measure, in the same setting: the figure for PAPSS1 (UniProt O43252) is inactive: -0.033; for PDIA4 (UniProt P13667) it is inactive: -0.047; for PABPC4 isoform 3 (UniProt Q13310) it is inactive: -0.031.
Same read-out and setting: next, PCBD2 (UniProt Q9H0N5): inactive: 0.003; PDCL3 (UniProt Q9H2J4): inactive: 0.041.
On to PDLIM4 (UniProt P50479), for which the log2 fold change was inactive: 0.001.
Still for that read-out and setting: next, PCNA (UniProt P12004): inactive: -0.006.
Still for that read-out and setting: the figure for PDXDC1 (UniProt Q6P996) is inactive: -0.052; for PAFAH1B1 (UniProt P43034) it is inactive: -0.009.
With PDZD8 (UniProt Q8NEN9), the log2 fold change was inactive: -0.042.
In the case of PEX12 (UniProt O00623), the log2 fold change is inactive: 0.012.
On the same count and under the same terms, the figure for PCBD1 (UniProt P61457) is inactive: -0.002; for PDIA5 (UniProt Q14554) it is inactive: -0.041.
In the case of PDXK (UniProt O00764), the log2 fold change was inactive: 0.118.
With PBLD (UniProt P30039), the log2 fold change is inactive: 0.005.
Still for that read-out and setting: next, PEX1 (UniProt O43933): inactive: -0.027.
Regarding PANK2 (UniProt Q9BZ23), the log2 fold change was inactive: -0.065.

Compound in the next assay: CC1=NC(=CC=C1)C2=C(N=C(N2)C(C)(C)C)C3=CC4=NC=CN=C4C=C3
The assay is described as above. In outline:
as §1
As for PCYOX1 (UniProt Q9UHG3), the log2 fold change is inactive: 0.034.
For PDCL (UniProt Q13371), the log2 fold change was inactive: 0.
Same read-out and setting: the figure for PDCD5 (UniProt O14737) is inactive: 0.061; for PAGR1 (UniProt Q9BTK6) it is inactive: 0.126.
Still for that read-out and setting: next, PDCD11 (UniProt Q14690): inactive: -0.069; PDSS1 (UniProt Q5T2R2): inactive: 0; PAK3 isoform 3 (UniProt O75914): inactive: 0.04.
As to PAIP2 (UniProt Q9BPZ3), the log2 fold change was inactive: -0.059.
With PDF (UniProt Q9HBH1), the log2 fold change was inactive: 0.09.
The same measure, in the same setting: next, PANX1 (UniProt Q96RD7): inactive: 0.013; PDHX (UniProt O00330): inactive: -0.075; PDHB (UniProt P11177): inactive: -0.058.
On the same count and under the same terms, next, PAK2 (UniProt Q13177): inactive: 0.04; PEX14 (UniProt O75381): inactive: 0.07.
On the same count and under the same terms, next, PASK (UniProt Q96RG2): inactive: 0.012; PCSK9 (UniProt Q8NBP7): inactive: -0.036.
Take PAPSS1 (UniProt O43252): the log2 fold change was inactive: 0.011.
The same measure, in the same setting: the figure for PDIA4 (UniProt P13667) is inactive: -0.046.
On to PABPC4 isoform 3 (UniProt Q13310), for which the log2 fold change was inactive: 0.026.
On the same count and under the same terms, the figure for PCBD2 (UniProt Q9H0N5) is inactive: 0.005; for PDCL3 (UniProt Q9H2J4) it is inactive: 0.
On the same count and under the same terms, the figure for PDLIM4 (UniProt P50479) is inactive: -0.002; for PCNA (UniProt P12004) it is inactive: 0.051.
As for PDXDC1 (UniProt Q6P996), the log2 fold change was inactive: -0.135.
On to PAFAH1B1 (UniProt P43034), for which the log2 fold change was inactive: -0.003.
Same read-out and setting: the figure for PDZD8 (UniProt Q8NEN9) is inactive: 0.04; for PEX12 (UniProt O00623) it is inactive: 0.117.
On the same count and under the same terms, next, PCBD1 (UniProt P61457): inactive: -0.011.
PDIA5 (UniProt Q14554): the log2 fold change was inactive: -0.01.
On the same count and under the same terms, next, PDXK (UniProt O00764): inactive: 0.057; PBLD (UniProt P30039): inactive: -0.198.
Consider PEX1 (UniProt O43933), for which the log2 fold change is inactive: 0.007.
On the same count and under the same terms, the figure for PANK2 (UniProt Q9BZ23) is inactive: -0.098.

Source of the values: the supplement of paper PMC10849652.
